Test results published in patent publication US20060003924A1, “Sulfation-independent L-selectin or E-selectin ligand (HCELL) and therapeutics thereof” (priority 1994, published 2006).
Some entries share one result that the patent states for a list of compounds.

System: KG1a
Test: KG1a cell viability by trypan blue exclusion
Settings: KG1a after the treatment

For OC[C@H]1NC[C@@H](O)[C@@H](O)[C@@H]1O [Deoxymannojirimycin], the “Cell viability (trypan blue exclusion)” value was greater than 98%.
